Measurements reported in PubChem BioAssay AID1159578 (Peter MacCallum Cancer Centre, 2015)
In all, the deposit lists about 18,000 reagents; shown is an unselected part. About 1,030 of them (5.7%) count as active. 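Inactive calls also include pools with fewer than 3300 nuclei, whose migration was not assessed.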 The raw values are shown without normalisation. Entries without a mark were called inactive.

Screen: 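Genome-wide hunt for genes controlling movement of lymphatic endothelial cells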 (primary screen)
System: human lymphatic endothelial cells
Reagents: siRNA pool against human genes, 40 nM
Duration: 48 h after transfection
Detection: 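High-content imaging of dye-stained cells in a scratch assay measures filled wound area and nuclei per well; duplicate means given as ratio to mock and robust z-score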
Scale: migration robust z-score: higher = faster migration into the scratch; migration relative to mock: higher = more scratch area covered than mock; nuclei per well: higher = more cells in the well
Rule for the call: 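Migration changed when robust z exceeds 2 or falls below -2 and mean nuclei number is at least 3300; otherwise not called changed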
Meaning of the calls: active = migration changed; inactive = no migration change, or too few cells

no.	target gene	migration robust z-score	migration class with cell-count check	migration relative to mock	nuclei per well, duplicate mean
1	SLC30A3 (GeneID 7781)	-0.08	migration z between -2 and 2; enough cells	0.86	5860
2	CIAPIN1 (GeneID 57019)	0.28	migration z between -2 and 2; enough cells	0.96	6002
3	CELA2B (GeneID 51032)	0.29	migration z between -2 and 2; enough cells	0.86	5405
4	GIPC1 (GeneID 10755)	1.06	migration z between -2 and 2; enough cells	1.17	6470
5	LDHA (GeneID 3939)	-1.01	migration z between -2 and 2; enough cells	0.61	5170
6	CNOT6L (GeneID 246175)	0.46	migration z between -2 and 2; enough cells	0.9	5172
7	ANGPTL4 (GeneID 51129)	-0.88	migration z between -2 and 2; enough cells	0.66	5276
8	HTR4 (GeneID 3360)	0.9	migration z between -2 and 2; enough cells	0.98	5686
9	DERL2 (GeneID 51009)	-1.09	migration z between -2 and 2; enough cells	0.6	3842
10	PHKA1 (GeneID 5255)	1.27	migration z between -2 and 2; enough cells	1.05	5686
11	NANP (GeneID 140838)	0.2	migration z between -2 and 2; enough cells	0.84	5538
12	TNFRSF21 (GeneID 27242)	0.2	migration z between -2 and 2; enough cells	0.94	5890
13	KRABD3 (GeneID 84626)	-0.12	migration z between -2 and 2; enough cells	0.86	6352
14	KLK15 (GeneID 55554)	-0.13	migration z between -2 and 2; enough cells	0.78	5360
15	RRAGC (GeneID 64121)	0.6	migration z between -2 and 2; enough cells	1.04	6355
16	KNG1 (GeneID 3827)	0.73	migration z between -2 and 2; enough cells	0.94	4768
17	GJB5 (GeneID 2709)	1.33	migration z between -2 and 2; enough cells	1.06	6157
18	GPX3 (GeneID 2878)	0.05	migration z between -2 and 2; enough cells	0.82	5432
19	AGMO (GeneID 392636)	0.86	migration z between -2 and 2; enough cells	0.97	6658
20	SLAIN1 (GeneID 122060)	0.86	migration z between -2 and 2; enough cells	1.11	6747
21	ADAM17 (GeneID 6868)	1.5	migration z between -2 and 2; enough cells	1.1	5654
22	KRTAP12-1 (GeneID 353332)	-1.49	migration z between -2 and 2; enough cells	0.5	5398
23	DNAJC3 (GeneID 5611)	-1.87	migration z between -2 and 2; enough cells	0.4	4496
24	GPM6B (GeneID 2824)	-0.24	migration z between -2 and 2; enough cells	0.82	5627
25	MED13L (GeneID 23389)	1.97	migration z between -2 and 2; enough cells	1.4	6656
26	RBM12 (GeneID 10137)	0.74	migration z between -2 and 2; enough cells	1.08	5928
27	NKX2-8 (GeneID 26257)	-1.77	migration z between -2 and 2; enough cells	0.46	5352
28	MALL (GeneID 7851)	1.07	migration z between -2 and 2; enough cells	1.17	6616
29	ZNF384 (GeneID 171017)	-0.52	migration z between -2 and 2; enough cells	0.7	5900
30	SLC34A3 (GeneID 142680)	0.21	migration z between -2 and 2; enough cells	0.84	6209
31	RNF144B (GeneID 255488)	0.31	migration z between -2 and 2; enough cells	0.86	6011
32	TBCD (GeneID 6904)	-1.11	migration z between -2 and 2; enough cells	0.6	5167
33	HMG20A (GeneID 10363)	1.25	migration z between -2 and 2; enough cells	1.04	5154
34	MAFF (GeneID 23764)	-1.43	migration z between -2 and 2; enough cells	0.53	5029
35	IFITM2 (GeneID 10581)	-2.66	under 3300 nuclei; migration not judged	0.2	1926
36	COA3 (GeneID 28958)	1.21	migration z between -2 and 2; enough cells	1.2	5402
37	LHX1 (GeneID 3975)	0.11	migration z between -2 and 2; enough cells	0.82	5790
38	NAP1L4 (GeneID 4676)	0.18	migration z between -2 and 2; enough cells	0.93	3782
39	ZNF132 (GeneID 7691)	-2.36 (active)	migration z below -2; enough cells	0.28	3810

Called active, of those listed so far:
target gene	migration robust z-score	migration class with cell-count check	migration relative to mock	nuclei per well, duplicate mean
ZNF132 (GeneID 7691)	-2.36 (active)	migration z below -2; enough cells	0.28	3810
